Reference: article PMC9631052
These are yes or no findings as the source states them, for the method shown. Binding seen in cells or lysates may run through a third protein.

Biological target: T1, VAMP‐associated protein A (human (endogenous in HCCLM3‐BM4)) (UniProt Q9P0L0)
T1 sequence: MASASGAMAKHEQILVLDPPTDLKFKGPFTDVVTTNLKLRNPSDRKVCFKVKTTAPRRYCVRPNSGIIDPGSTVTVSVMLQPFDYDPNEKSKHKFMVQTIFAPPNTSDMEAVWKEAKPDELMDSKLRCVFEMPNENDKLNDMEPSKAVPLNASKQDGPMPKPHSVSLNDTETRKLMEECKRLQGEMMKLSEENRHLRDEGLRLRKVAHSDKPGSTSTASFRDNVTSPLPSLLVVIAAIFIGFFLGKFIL
Experiment: co-IP; endogenous proteins in HCCLM3‐BM4 cells and in LOs derived from HCCLM3‐BM4 cells (Figure 1I, Figure S2A)

B1: cytokeratin 18 (protein, UniProt P05783 1-430)
chain: MSFTTRSTFSTNYRSLGSVQAPSYGARPVSSAASVYAGAGGSGSRISVSRSTSFRGGMGSGGLATGIAGGLAGMGGIQNEKETMQSLNDRLASYLDRVRSLETENRRLESKIREHLEKKGPQVRDWSHYFKIIEDLRAQIFANTVDNARIVLQIDNARLAADDFRVKYETELAMRQSVENDIHGLRKVIDDTNITRLQLETEIEALKEELLFMKKNHEEEVKGLQAQIASSGLTVEVDAPKSQDLAKIMADIRAQYDELARKNREELDKYWSQQIEESTTVVTTQSAEVGAAETTLTELRRTVQSLEIDLDSMRNLKASLENSLREVEARYALQMEQLNGILLHLESELAQTRAEGQRQAQEYEALLNIKVKLEAEIATYRRLLEDGEDFNLGDALDSSNSMQTIQKTTTRRIVDGKVVSETNDTKVLRH
binding: no binding
